Patent US20240034737A1, “Heterocyclic Derivatives as P2X7 Receptor Antagonists” (BREYE THERAPEUTICS APS, priority 2020, published 2024)

By UniProt entry, the sequences of proteins in these tests, tags left out.
UniProt Q99572, whole entry: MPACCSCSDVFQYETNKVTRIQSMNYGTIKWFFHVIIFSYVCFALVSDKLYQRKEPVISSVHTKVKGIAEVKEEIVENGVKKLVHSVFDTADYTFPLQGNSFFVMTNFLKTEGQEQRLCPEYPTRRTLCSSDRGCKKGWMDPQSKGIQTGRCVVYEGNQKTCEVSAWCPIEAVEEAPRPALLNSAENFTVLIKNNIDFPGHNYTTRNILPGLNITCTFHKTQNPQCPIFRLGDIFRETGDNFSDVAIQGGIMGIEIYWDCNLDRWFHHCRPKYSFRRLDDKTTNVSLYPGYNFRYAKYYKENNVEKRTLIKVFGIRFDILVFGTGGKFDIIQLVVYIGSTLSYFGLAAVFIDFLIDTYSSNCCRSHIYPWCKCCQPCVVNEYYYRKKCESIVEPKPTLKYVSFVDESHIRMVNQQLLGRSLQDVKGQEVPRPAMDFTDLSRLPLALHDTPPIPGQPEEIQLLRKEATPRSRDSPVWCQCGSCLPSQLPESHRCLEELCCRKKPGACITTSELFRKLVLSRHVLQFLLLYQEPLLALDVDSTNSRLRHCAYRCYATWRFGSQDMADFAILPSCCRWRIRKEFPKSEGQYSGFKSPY
UniProt Q9Z1M0, whole entry: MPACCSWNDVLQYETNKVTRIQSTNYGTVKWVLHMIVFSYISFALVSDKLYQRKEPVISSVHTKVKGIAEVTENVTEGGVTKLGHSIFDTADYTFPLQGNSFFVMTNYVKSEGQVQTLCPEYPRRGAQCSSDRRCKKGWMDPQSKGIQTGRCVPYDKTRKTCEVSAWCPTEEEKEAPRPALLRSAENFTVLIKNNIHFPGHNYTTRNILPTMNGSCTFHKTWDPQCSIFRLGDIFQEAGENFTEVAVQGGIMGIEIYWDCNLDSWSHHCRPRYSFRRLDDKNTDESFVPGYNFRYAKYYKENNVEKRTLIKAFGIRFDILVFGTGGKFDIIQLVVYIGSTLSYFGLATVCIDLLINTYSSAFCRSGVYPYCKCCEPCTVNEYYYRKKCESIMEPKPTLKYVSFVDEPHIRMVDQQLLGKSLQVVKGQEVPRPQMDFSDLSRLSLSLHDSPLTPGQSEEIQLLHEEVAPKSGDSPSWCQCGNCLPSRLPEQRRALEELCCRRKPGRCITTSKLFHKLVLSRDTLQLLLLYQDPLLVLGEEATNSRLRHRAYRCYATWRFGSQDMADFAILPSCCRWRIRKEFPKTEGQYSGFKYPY

Assays:
P2X7 receptor = P2X7 receptor (Homo sapiens (Human), UniProt Q99572); experiment: Human P2X7 channel calcium-influx assay (Fluo-8 NW, FLIPR TETRA, Bz-ATP stimulation); settings: read-out: hP2X7 IC50, HEK-293 cells stably transfected with P2X7 receptor, Low Divalent Cation Assay Buffer
Protocol: (§1) Extracellular binding of Bz-ATP to P2X7 receptor opens the channel and allows Ca^2+ influx into the cells. This Ca^2+ entry was measured in HEK-293 cells stably transfected with P2X7 receptor using Screen Quest™ Fluo-8 No Wash Calcium Assay Kit (AAt Bioquest®, cat. 36316). Once inside the cell, the lipophilic blocking groups of Fluo-8 are cleaved by non-specific cell esterases, resulting in a negatively-charged fluorescent dye that stays inside cells. Its fluorescence increases upon binding to calcium. When HEK-293/P2X7 cells are stimulated with Bz-ATP, Ca^2+ enters the cells and the fluorescence of Fluo-8 NW increases. The dye has an absorption spectrum compatible with excitation at 488 nm by argon laser sources and its emission wavelength is in the range of 515-575 nm.
(§2) HEK-293 cells stably transfected with P2X7 receptor were seeded overnight in growth medium at 10,000 to 20,000 cells/well in 384-well plate. 24 hours later, the medium was removed, and the cells were pre-loaded at RT for 1 hour with 20 μL/w of Fluo-8 NW. Then 10 μL/w of test compounds and reference antagonist A438079 at 3X-concentration were injected with the FLIPRTETRA and the kinetic response over a period of five minutes was monitored. […]

mP2X7 = mP2X7 (Mus musculus (Mouse), UniProt Q9Z1M0); experiment: mP2X7 channel calcium-influx assay (Fluo-8 NW, FLIPR TETRA, Bz-ATP stimulation); settings: read-out: mP2X7 IC50
Protocol: as §1, §2

`O=C(NCC(c1scnc1C(F)F)N1CCC(Oc2nncc3ccccc23)CC1)c1c(F)cccc1Cl` (centres unmarked) was tested, and the IC50 (P2X7 receptor) was 16.6 nM and the IC50 (mP2X7) was 24.6 nM.

Structures were worked out from names or drawings and are uncertain.
